Results deposited as PubChem BioAssay AID1159584 (Peter MacCallum Cancer Centre, 2016)

Screen: 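Knock-downs that harm CDH1-null cells more than parental MCF10A cells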 (primary screen)
Cell system: human MCF10A breast epithelial cells, parental and CDH1-null
Reagent: siRNA against human genes
Measurement: 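Cell viability by CellTiter-Glo ATP luminescence, each line scaled to the mean of mock wells across plates, then CDH1-null over parental ratio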
Scale: CDH1-null / parental viability ratio: higher = CDH1-null cells survive relatively better than parental
Shown is an unselected part of about 18,000 deposited reagents. Further read-outs or replicates are left out here. Not stated in the record: the amount of reagent, the time to read-out.

Against GAL, the values are CDH1-null / parental viability ratio 1.19.
SMG9 scored CDH1-null / parental viability ratio 1.
Silencing of C16orf86 came out at: CDH1-null / parental viability ratio 1.2.
For LIFR, the entry reads CDH1-null / parental viability ratio 0.9.
For IRF9, the values are CDH1-null / parental viability ratio 0.89.
CLDN20 gave CDH1-null / parental viability ratio 1.16.
After knock-down of RNF24 the results were CDH1-null / parental viability ratio 0.77.
With knock-down of TUBA1A, the record shows CDH1-null / parental viability ratio 0.79.
After knock-down of CDC25B, the screen gave CDH1-null / parental viability ratio 1.33.
EEF1A1 showed CDH1-null / parental viability ratio 1.14.
For STRA6, the values are CDH1-null / parental viability ratio 1.02.
For MCM3 the deposit lists CDH1-null / parental viability ratio 1.17.
ADCY7 gave CDH1-null / parental viability ratio 0.75.
Knock-down of FAIM2 gave: CDH1-null / parental viability ratio 1.14.

Not a retest: entries from further up.
SMG9 | CDH1-null / parental viability ratio = 1
C16orf86 | CDH1-null / parental viability ratio = 1.2
LIFR | CDH1-null / parental viability ratio = 0.9
IRF9 | CDH1-null / parental viability ratio = 0.89

More reagents:
For PDAP1 the deposit lists CDH1-null / parental viability ratio 0.99.
With knock-down of ZNF501, the screen gave CDH1-null / parental viability ratio 0.72.
Depletion of MICU3 gave: CDH1-null / parental viability ratio 1.22.
Silencing of DUSP9 came out at: CDH1-null / parental viability ratio 1.27.
PSAT1 gave CDH1-null / parental viability ratio 1.05.
PRAG1 scored CDH1-null / parental viability ratio 1.16.
After knock-down of VPS4B, the record shows CDH1-null / parental viability ratio 1.31.
With knock-down of ANLN the results were CDH1-null / parental viability ratio 1.14.
For PCOLCE2 the deposit lists CDH1-null / parental viability ratio 1.03.
Against FAM20C the deposit lists CDH1-null / parental viability ratio 1.48.
